# Experimental data from patent publication US12517131B2, “Methods for labeling eukaryotic cells from a multicellular organism as well as for treating and/or diagnosing a cancer using modified monosaccharide compounds” (DIAMIDEX, priority 2019, dated 2026).
# For at least one compound, name, drawing or mass did not settle the structure.
# Experiments:
# Macrophages = assay: Comparison of labeling of Ara-N3 and KDO-N3; format: cell-based, human; conditions: same conditions as in example 2
# HeLa = assay: Comparison of labeling of Ara-N3 and KDO-N3; format: cell-based, human; conditions: same conditions as in example 2
# [1] = test system: human urinary bladder carcinoma (T24); assay: Labeling of bladder cells with Ara-N3 probe, copper-free click, fluorescence microscopy; format: cell-based; conditions: after 24 hours; tables 1 and 2
# Description: The human uroepithelial cells (SV-HUC-1) and the human urinary bladder carcinoma (T24) were purchased from ATCC (Manassas, Van USA). These cell lines were grown in RPMI 1640 with Glutamine 1 medium (Lonza Biowhttaker) supplemented by 10% fetal bovine serum (FBS) (VWR international S.A.S). The culture medium was changed every two days. The passaging of cells was performed using Tryp-LE express 1× (Gibco). The cell viability was estimated using trypan blue exclusion tests.
# SV-HUC-1 and T24 cells were seeded in 24-well plates, at density of 5*10^4 cells/well. Then, cells were incubated at 37° C., 5% in CO2 during 24 hours. […]
# The fluorescence Assimilation of Ara-N3 probes was visualized by copper-free click chemistry using sulfo-DBCO-biotin (1 mM), followed by labeling with a mouse anti-biotin Alexa Fluor 488 antibody conjugate (0.62 mg/ml stock, Jackson ImmunoResearch, dilution 1/10). […]
# The fluorescence acquisition was recorded using Olympus Microscopy IX83 (Olympus Life Science) equipped with a 60×/1.3 […]/1.4 SRI (silicone refractive index) objective, and Hamamatsu oreca flash 4 LT camera with 109 nm/pixel calibrated pixel size. The excitation light was emitted by X-CITE 120LED using the AT180/30X excited filter and signal was monitored using AT535/40m emission filter. Green light exposition time was 600 ms and white light exposition time was determined by DIC methods at 340 ins. […]
# Raw = assay: Comparison of labeling of Ara-N3 and KDO-N3; format: cell-based, human; conditions: same conditions as in example 2
smiles,measurement,setting,value
"[N-]=[N+]=NC[C@H]1OC(O)[C@@H](O)[C@@H]1O (stereo partly drawn) [Ara-N3, 5-azido-5-deoxy-D-arabinofuranose]",labelling of cells (fluorescence intensity),Macrophages,labelled
same,labelling of cells (fluorescence intensity),HeLa,labelled
same,"assimilation of the probe, T24 cells compared to SV-HUC1 cells",[1],greater assimilation
same,labelling of cells (fluorescence intensity),Raw,labelled
